From publication PMC11475711
These are yes or no findings as the source states them, for the method shown. Binding seen in cells or lysates may run through a third protein. Some entries that bind do so weakly or less than the wild type.

Protein sequences, listed by entry. Tags and fused reporters are not part of them.
UniProt Q8VDD5: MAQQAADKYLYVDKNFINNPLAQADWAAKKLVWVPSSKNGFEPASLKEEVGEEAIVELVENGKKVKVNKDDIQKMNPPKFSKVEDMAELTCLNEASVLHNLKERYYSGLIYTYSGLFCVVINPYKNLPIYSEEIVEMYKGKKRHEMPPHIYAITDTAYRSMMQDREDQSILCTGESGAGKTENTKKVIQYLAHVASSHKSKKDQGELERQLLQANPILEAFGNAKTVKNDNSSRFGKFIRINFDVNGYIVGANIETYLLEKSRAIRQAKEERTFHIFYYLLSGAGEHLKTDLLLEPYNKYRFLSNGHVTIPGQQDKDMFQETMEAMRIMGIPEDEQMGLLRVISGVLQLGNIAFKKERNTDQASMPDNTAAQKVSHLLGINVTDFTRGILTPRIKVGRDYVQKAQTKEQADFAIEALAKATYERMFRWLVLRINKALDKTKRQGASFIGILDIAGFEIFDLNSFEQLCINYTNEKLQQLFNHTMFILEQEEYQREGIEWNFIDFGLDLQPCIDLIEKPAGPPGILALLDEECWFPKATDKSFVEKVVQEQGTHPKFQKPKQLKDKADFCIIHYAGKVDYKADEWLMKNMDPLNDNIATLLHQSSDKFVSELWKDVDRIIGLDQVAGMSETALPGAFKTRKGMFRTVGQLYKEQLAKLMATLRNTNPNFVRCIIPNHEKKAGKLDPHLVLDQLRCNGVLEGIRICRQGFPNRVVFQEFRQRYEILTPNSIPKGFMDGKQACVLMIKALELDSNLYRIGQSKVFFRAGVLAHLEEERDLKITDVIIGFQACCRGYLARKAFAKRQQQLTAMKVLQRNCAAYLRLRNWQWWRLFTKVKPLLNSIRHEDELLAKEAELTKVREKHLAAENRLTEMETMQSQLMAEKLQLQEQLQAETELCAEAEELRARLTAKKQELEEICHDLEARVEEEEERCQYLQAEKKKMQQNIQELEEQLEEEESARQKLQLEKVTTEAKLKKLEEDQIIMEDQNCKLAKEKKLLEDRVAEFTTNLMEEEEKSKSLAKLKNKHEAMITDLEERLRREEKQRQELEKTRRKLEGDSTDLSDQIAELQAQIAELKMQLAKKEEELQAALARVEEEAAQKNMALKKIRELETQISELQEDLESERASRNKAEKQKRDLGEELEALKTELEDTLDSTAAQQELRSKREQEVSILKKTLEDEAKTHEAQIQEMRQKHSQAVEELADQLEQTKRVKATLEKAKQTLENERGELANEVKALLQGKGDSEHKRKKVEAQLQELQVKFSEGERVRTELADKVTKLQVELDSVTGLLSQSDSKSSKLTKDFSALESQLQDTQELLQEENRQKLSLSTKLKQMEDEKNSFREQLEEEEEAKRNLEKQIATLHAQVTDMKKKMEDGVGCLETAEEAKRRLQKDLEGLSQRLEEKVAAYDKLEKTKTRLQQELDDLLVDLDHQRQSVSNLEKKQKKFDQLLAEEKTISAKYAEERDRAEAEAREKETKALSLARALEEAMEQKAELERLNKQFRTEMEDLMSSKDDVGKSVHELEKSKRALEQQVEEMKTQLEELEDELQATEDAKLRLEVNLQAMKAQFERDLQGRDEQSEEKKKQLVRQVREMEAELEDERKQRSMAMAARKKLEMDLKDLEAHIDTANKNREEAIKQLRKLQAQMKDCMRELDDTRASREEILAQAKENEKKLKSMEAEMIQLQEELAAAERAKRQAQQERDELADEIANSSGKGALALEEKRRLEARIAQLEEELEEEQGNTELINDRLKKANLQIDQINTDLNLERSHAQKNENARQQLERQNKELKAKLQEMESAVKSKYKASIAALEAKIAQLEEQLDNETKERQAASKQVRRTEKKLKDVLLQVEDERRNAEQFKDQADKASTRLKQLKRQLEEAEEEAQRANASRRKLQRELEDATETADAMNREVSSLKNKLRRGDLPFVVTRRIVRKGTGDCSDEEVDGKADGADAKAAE
UniProt Q02248: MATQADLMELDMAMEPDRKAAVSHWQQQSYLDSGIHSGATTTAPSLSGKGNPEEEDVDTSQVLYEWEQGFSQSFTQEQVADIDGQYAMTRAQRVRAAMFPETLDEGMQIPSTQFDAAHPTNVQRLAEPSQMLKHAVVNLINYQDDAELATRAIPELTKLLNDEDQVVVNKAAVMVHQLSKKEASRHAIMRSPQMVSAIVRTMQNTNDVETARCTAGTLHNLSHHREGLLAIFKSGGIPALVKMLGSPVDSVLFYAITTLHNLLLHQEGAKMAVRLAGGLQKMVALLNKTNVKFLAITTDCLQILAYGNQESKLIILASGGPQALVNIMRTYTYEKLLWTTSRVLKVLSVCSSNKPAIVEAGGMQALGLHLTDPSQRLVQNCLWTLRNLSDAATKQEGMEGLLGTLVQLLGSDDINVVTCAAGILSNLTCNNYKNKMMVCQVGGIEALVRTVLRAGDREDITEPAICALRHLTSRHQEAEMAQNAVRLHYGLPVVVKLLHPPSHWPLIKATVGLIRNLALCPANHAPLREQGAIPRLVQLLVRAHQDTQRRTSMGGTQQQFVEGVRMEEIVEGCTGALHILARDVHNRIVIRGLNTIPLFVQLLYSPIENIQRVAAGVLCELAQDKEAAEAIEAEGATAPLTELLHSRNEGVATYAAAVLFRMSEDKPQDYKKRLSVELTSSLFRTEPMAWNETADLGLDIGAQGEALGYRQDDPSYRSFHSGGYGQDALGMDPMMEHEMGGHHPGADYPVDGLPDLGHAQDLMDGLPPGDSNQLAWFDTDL

Molecular target: Myosin IIA (mouse (endogenous in bEnd.3)) (UniProt Q8VDD5)
Assay: co-IP; endogenous proteins; bEnd.3 brain ECs grown to a confluent monolayer, lysed, co-immunoprecipitation; which protein was precipitated is not told

β-catenin (from UniProt Q02248 1-781)
binding: binds
